Data from patent US5185320A (Gruppo Lepetit S.p.A., priority 1989, dated 1993).

Test: peptide synthesis
Conditions: late stage modification step, hydrochloride

Row | Substance | step yield | further results
1 | N^15 -tert-butyloxycarbonyl deglucoteicoplanin | 92% | –
2 | O^56 -(1-carboxy-3-hydroxypropyl)deglucoteicoplanin methyl ester hydrochloride | about 25% | –
3 | O^56 -(4-aminobutyl)deglucoteicoplanin methyl ester | – | final HPLC purity (HPLC): >95% HPLC titer
4 | O^56 -[2-(1-pyrrolidinyl)ethyl]deglucoteicoplanin methyl ester dihydrochloride | – | purity (crude or final not stated) (HPLC): HPLC purity 85%
